Results deposited as PubChem BioAssay AID686938 (Drosophila RNAi Screening Center, 2013).
Aim: 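Fly genes required for calcium entry once internal stores are emptied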 (primary screen). System: Drosophila S2R+ cells. Reagent: long dsRNA against Drosophila genes, about 0.25 µg dsRNA per well, roughly 10,000 cells. Timing: 5 days of knock-down before the calcium assay. Challenge: thapsigargin (SERCA pump blocker) to empty calcium stores; entry signal taken 4 min after adding it. Measurement: 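Duplicate raw fluo-4 intensities per well from a plate reader, at rest and four minutes after thapsigargin emptied calcium stores; entry-to-rest ratio filled for only some wells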. Reading the numbers: calcium entry signal: higher = stronger calcium signal after store depletion; resting calcium signal: higher = higher resting calcium signal. Units: calcium entry signal in fluorescence units; resting calcium signal in fluorescence units. Active means: 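Hit if the duplicate-averaged plate z-score for entry over resting signal is under −3; wells with weak total dye signal (Fmax z < −2) or more than 5 off-targets removed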. Calls: active = strongly reduced calcium entry; inactive = no strong reduction.
The deposit covers about 23,000 reagents; shown is an unselected part of those that have a named target and a result. Of all reagents, 75 (0.33%) were called active. 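Raw plate signals without normalisation; calls rest on plate z-scores that were not deposited; ratio present for only 364 wells.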 A number with no mark means an inactive call. A plus sign joins genes that one reagent is predicted to hit. Not stated in the record: the dose of the treatment.

{"target":"CG30109 + CG30108","DRSC id":"DRSC05674","calcium entry signal, replicate 1":3.50e7,"calcium entry signal, replicate 2":5.78e7,"resting calcium signal, replicate 1":1.70e7,"resting calcium signal, replicate 2":2.78e7}
{"target":"CG42789","DRSC id":"DRSC13793","calcium entry signal, replicate 1":3.04e7,"calcium entry signal, replicate 2":1.84e7,"resting calcium signal, replicate 1":1.33e7,"resting calcium signal, replicate 2":9.91e6}
{"target":"AdamTS-A","DRSC id":"DRSC14992","calcium entry signal, replicate 1":3.64e7,"calcium entry signal, replicate 2":4.38e7,"resting calcium signal, replicate 1":1.46e7,"resting calcium signal, replicate 2":1.92e7}
{"target":"AdamTS-A","DRSC id":"DRSC15966","calcium entry signal, replicate 1":2.26e7,"calcium entry signal, replicate 2":2.63e7,"resting calcium signal, replicate 1":1.19e7,"resting calcium signal, replicate 2":3.93e7}
{"target":"CR33317","DRSC id":"DRSC02653","calcium entry signal, replicate 1":4.37e7,"calcium entry signal, replicate 2":4.77e7,"resting calcium signal, replicate 1":2.16e7,"resting calcium signal, replicate 2":1.95e7}
{"target":"CG11425","DRSC id":"DRSC11657","calcium entry signal, replicate 1":3.03e7,"calcium entry signal, replicate 2":5.14e7,"resting calcium signal, replicate 1":1.50e7,"resting calcium signal, replicate 2":2.34e7}
{"target":"mdlc","DRSC id":"DRSC15690","calcium entry signal, replicate 1":2.68e7,"calcium entry signal, replicate 2":2.55e7,"resting calcium signal, replicate 1":1.42e7,"resting calcium signal, replicate 2":1.24e7}
{"target":"CG13038","DRSC id":"DRSC09919","calcium entry signal, replicate 1":8.43e7,"calcium entry signal, replicate 2":8.77e7,"resting calcium signal, replicate 1":3.07e7,"resting calcium signal, replicate 2":3.12e7}
{"target":"Obp73a","DRSC id":"DRSC09907","calcium entry signal, replicate 1":3.23e7,"calcium entry signal, replicate 2":6.05e7,"resting calcium signal, replicate 1":1.75e7,"resting calcium signal, replicate 2":2.29e7}
{"target":"CG16798","DRSC id":"DRSC02517","calcium entry signal, replicate 1":4.93e7,"calcium entry signal, replicate 2":5.27e7,"resting calcium signal, replicate 1":2.49e7,"resting calcium signal, replicate 2":2.32e7}

Next part, starting with the last 2 of the part before.
{"target":"Obp73a","DRSC id":"DRSC09907","calcium entry signal, replicate 1":3.23e7,"calcium entry signal, replicate 2":6.05e7,"resting calcium signal, replicate 1":1.75e7,"resting calcium signal, replicate 2":2.29e7}
{"target":"CG16798","DRSC id":"DRSC02517","calcium entry signal, replicate 1":4.93e7,"calcium entry signal, replicate 2":5.27e7,"resting calcium signal, replicate 1":2.49e7,"resting calcium signal, replicate 2":2.32e7}
{"target":"slf","DRSC id":"DRSC00583","calcium entry signal, replicate 1":3.23e7,"calcium entry signal, replicate 2":3.32e7,"resting calcium signal, replicate 1":1.56e7,"resting calcium signal, replicate 2":1.54e7}
{"target":"CG6688","DRSC id":"DRSC16094","calcium entry signal, replicate 1":5.20e7,"calcium entry signal, replicate 2":5.16e7,"resting calcium signal, replicate 1":2.48e7,"resting calcium signal, replicate 2":2.07e7}
{"target":"cno","DRSC id":"DRSC12054","calcium entry signal, replicate 1":2.01e7,"calcium entry signal, replicate 2":3.05e7,"resting calcium signal, replicate 1":1.05e7,"resting calcium signal, replicate 2":1.40e7}
{"target":"cno","DRSC id":"DRSC12374","calcium entry signal, replicate 1":2.36e7,"calcium entry signal, replicate 2":1.93e7,"resting calcium signal, replicate 1":1.49e7,"resting calcium signal, replicate 2":1.06e7}
{"target":"cno","DRSC id":"DRSC22980","calcium entry signal, replicate 1":3.69e7,"calcium entry signal, replicate 2":2.77e7,"resting calcium signal, replicate 1":1.46e7,"resting calcium signal, replicate 2":1.14e7}
{"target":"CG11905","DRSC id":"DRSC09863","calcium entry signal, replicate 1":2.12e7,"calcium entry signal, replicate 2":3.15e7,"resting calcium signal, replicate 1":1.09e7,"resting calcium signal, replicate 2":2.21e7}
{"target":"CG14556","DRSC id":"DRSC14899","calcium entry signal, replicate 1":3.53e7,"calcium entry signal, replicate 2":4.61e7,"resting calcium signal, replicate 1":1.82e7,"resting calcium signal, replicate 2":1.99e7}
{"target":"CG3104","DRSC id":"DRSC00567","calcium entry signal, replicate 1":2.58e7,"calcium entry signal, replicate 2":3.77e7,"resting calcium signal, replicate 1":1.26e7,"resting calcium signal, replicate 2":1.81e7}
{"target":"cbt","DRSC id":"DRSC00655","calcium entry signal, replicate 1":4.68e7,"resting calcium signal, replicate 1":2.54e7}
{"target":"tex","DRSC id":"DRSC16517","calcium entry signal, replicate 1":4.10e7,"calcium entry signal, replicate 2":3.89e7,"resting calcium signal, replicate 1":1.99e7,"resting calcium signal, replicate 2":1.90e7}
{"target":"CG5498","DRSC id":"DRSC11608","calcium entry signal, replicate 1":4.36e7,"calcium entry signal, replicate 2":4.48e7,"resting calcium signal, replicate 1":2.11e7,"resting calcium signal, replicate 2":3.00e7}
